Source: PubChem BioAssay AID1224828 (NIAID, 2016)

Assay: 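Knock-downs that increase or decrease LPS-induced p65 nuclear translocation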 (primary screen)
System: mouse RAW264.7 G9 macrophage reporter cells (GFP-p65, Tnf promoter-mCherry)
Reagents: siRNA pool against mouse genes, 100 nM
Time to read-out: 2 days siRNA transfection, then 40 min LPS before fixation
Challenge: LPS (Salmonella minnesota R595) at 10 ng/ml
Measurement: 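Imaged p65 nuclear translocation ratio, normalised to the plate median, converted to robust z-scores and averaged across two replicates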
Reading the numbers: p65 translocation robust z-score: higher = more nuclear NF-kappaB p65 after LPS than the plate median; nuclear/cytoplasmic p65 ratio: higher = more nuclear NF-kappaB p65
Rule for the call: 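Called active when z exceeds 3.3 or falls under -1.56 (median of Tlr4 controls), giving activity score of at least 50; no calls for control wells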
Calls: active = hit (p65 shift raised or lowered); inactive = no clear change
This is a random part of about 17,000 reagents. Over the whole deposit, 762 (4.5%) got an active call. 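Active calls include both raised and lowered p65 entry, mostly lowered; wells with fewer than 50 cells lack a z-score.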 The raw values are shown without normalisation. Entries without a mark were called inactive.

| gene symbol | PubChem SID | p65 translocation robust z-score | nuclear/cytoplasmic p65 ratio, rep 1 | nuclear/cytoplasmic p65 ratio, rep 2 | low cell count flag |
| --- | --- | --- | --- | --- | --- |
| Wnt7a | SID315470049 | 0.44 | 1.65 | 1.49 | enough cells to score |
| Pard6a | SID315471583 | 1.65 | 1.7 | 1.4 | enough cells to score |
| Cct8l1 | SID315479656 | 1.49 | 1.87 | 1.76 | enough cells to score |
| Trip6 | SID315469830 | 0.7 | 1.56 | 1.65 | enough cells to score |
| Lmbrd1 | SID315473527 | – | 1.07 | 0.993 | fewer than 50 cells per well; well left out of scoring |
| Gas1 | SID315466830 | 0.14 | 1.38 | 1.45 | enough cells to score |
| Fam219b | SID315475565 | 1.33 | 1.53 | 1.56 | enough cells to score |
| Erap1 | SID315475746 | 0.77 | 1.75 | 1.72 | enough cells to score |
| Gpr101 | SID315479815 | -0.25 | 1.49 | 1.53 | enough cells to score |
| Or2a56 | SID315480305 | – | 1.37 | 1.04 | fewer than 50 cells per well; well left out of scoring |
| Kirrel3 | SID315473176 | -2 (active) | 1.25 | 1.1 | enough cells to score |
| Tead3 | SID315469650 | -0.7 | 1.54 | 1.31 | enough cells to score |
| Gramd1a | SID315471024 | – | 1.16 | 1.4 | fewer than 50 cells per well; well left out of scoring |
| Zfp57 | SID315470124 | -1.36 | 1.24 | 1.09 | enough cells to score |
| H2bc3 | SID315481043 | – | 1.35 | 0.987 | fewer than 50 cells per well; well left out of scoring |
| Ush1g | SID315467551 | – | 1.21 | 1.06 | fewer than 50 cells per well; well left out of scoring |
| Tomm20 | SID315473332 | -1.2 | 1.26 | 1.02 | enough cells to score |
| Ube2q1 | SID315473974 | -0.81 | 1.46 | 1.52 | enough cells to score |
| Trappc4 | SID315472014 | 0.8 | 1.36 | 1.28 | enough cells to score |
| Ndc1 | SID315474628 | – | 1.25 | 1.1 | fewer than 50 cells per well; well left out of scoring |
| Unc13b | SID315469937 | 0.15 | 1.53 | 1.53 | enough cells to score |
| Arnt2 | SID315465511 | -0.94 | 1.5 | 1.46 | enough cells to score |
| Prp2 | SID315475807 | – | 1.17 | 1.12 | fewer than 50 cells per well; well left out of scoring |
| Or8b54 | SID315480426 | 1.49 | 1.6 | 1.45 | enough cells to score |
| 5330439B14Rik | SID315481438 | -0.36 | 1.38 | 1.35 | enough cells to score |
| Alox12b | SID315465393 | 0.96 | 1.74 | 1.79 | enough cells to score |
| Tbc1d4 | SID315477655 | – | 1.05 | 1.3 | fewer than 50 cells per well; well left out of scoring |
| Or2aa1 | SID315480103 | – | 1.17 | 1.03 | fewer than 50 cells per well; well left out of scoring |
| Hook2 | SID315477254 | 0.05 | 1.68 | 1.53 | enough cells to score |
| Bag1 | SID315465593 | 0.14 | 1.71 | 1.56 | enough cells to score |
| Or2j3 | SID315480158 | -0.98 | 1.45 | 1.3 | enough cells to score |
| Foxd1 | SID315467196 | -0.3 | 1.32 | 1.4 | enough cells to score |
| Psen1 | SID315468734 | -0.6 | 1.4 | 1.34 | enough cells to score |
| Phc1 | SID315466441 | 0.68 | 1.71 | 1.39 | enough cells to score |
| Nhlh2 | SID315468173 | -1.09 | 1.57 | 1.46 | enough cells to score |
| Capzb | SID315465754 | 0 | 1.59 | 1.64 | enough cells to score |
| Chat | SID315465951 | -1.07 | 1.31 | 1.24 | enough cells to score |
| Hipk4 | SID315479040 | – | 1.45 | 1.59 | fewer than 50 cells per well; well left out of scoring |
| Retnla | SID315471737 | -0.26 | 1.38 | 1.19 | enough cells to score |
| Abhd17b | SID315478457 | -1.83 (active) | 1.22 | 1.22 | enough cells to score |
| Gm9735 | SID315475448 | 0.28 | 1.51 | 1.54 | enough cells to score |
| Gpc1 | SID315466982 | – | 1.09 | 1.34 | fewer than 50 cells per well; well left out of scoring |
| Kctd3 | SID315478526 | 1.32 | 1.84 | 1.51 | enough cells to score |
| Gp9 | SID315471205 | 1.82 | 1.74 | 1.54 | enough cells to score |
| Apba1 | SID315481194 | 0.58 | 1.7 | 1.58 | enough cells to score |
| Or5b99 | SID315480352 | – | 1.32 | 1.2 | fewer than 50 cells per well; well left out of scoring |
| Krt13 | SID315467684 | -1.68 (active) | 1.3 | 1.12 | enough cells to score |
| Cfap100 | SID315479691 | – | 1.08 | 1.33 | fewer than 50 cells per well; well left out of scoring |
| Adck2 | SID315471836 | -0.03 | 1.69 | 1.38 | enough cells to score |
| H2ac1 | SID315481039 | 1.08 | 1.82 | 1.69 | enough cells to score |
| Zfp846 | SID315479780 | – | 1.31 | 1.17 | fewer than 50 cells per well; well left out of scoring |
| Tnks | SID315469780 | – | 1.2 | 1.04 | fewer than 50 cells per well; well left out of scoring |
| Tnks | SID315476318 | 0.59 | 1.62 | 1.92 | enough cells to score |
| Lefty2 | SID315481256 | 1.18 | 1.64 | 1.5 | enough cells to score |
| Rnpc3 | SID315472911 | – | 1.08 | 1.18 | fewer than 50 cells per well; well left out of scoring |
| Sowahd | SID315479811 | 0.43 | 1.45 | 1.58 | enough cells to score |
| Elf4 | SID315471576 | -0.2 | 1.44 | 1.34 | enough cells to score |
| Or8b48 | SID315480451 | 0.21 | 1.48 | 1.26 | enough cells to score |
| Tnfaip8l2 | SID315473893 | – | 1.35 | 1.27 | fewer than 50 cells per well; well left out of scoring |
| Rflna | SID315474675 | 0.51 | 1.31 | 1.35 | enough cells to score |
| Rsrc1 | SID315472692 | – | 1.22 | 1.4 | fewer than 50 cells per well; well left out of scoring |
| Zfp771 | SID315479746 | -1.6 (active) | 1.32 | 1.27 | enough cells to score |
| Nrxn1 | SID315468247 | 0.99 | 2.09 | 1.49 | enough cells to score |
| Serpinb9e | SID315469412 | -0.28 | 1.46 | 1.14 | enough cells to score |
| Yipf2 | SID315475043 | -0.04 | 1.56 | 1.41 | enough cells to score |
| Prl7d1 | SID315468587 | -0.78 | 1.25 | 1.15 | enough cells to score |
| Tdp2 | SID315471393 | -0.14 | 1.51 | 1.55 | enough cells to score |
| Wfdc12 | SID315477405 | – | 1.51 | 1.21 | fewer than 50 cells per well; well left out of scoring |
| Mrtfb | SID315476605 | -2.74 (active) | 1.27 | 1.11 | enough cells to score |
| Mrtfb | SID315479458 | 0.3 | 1.5 | 1.37 | enough cells to score |
| Zfp354b | SID315470561 | -0.12 | 1.47 | 1.18 | enough cells to score |
| Kcnv1 | SID315473066 | 0.92 | 1.6 | 1.5 | enough cells to score |
| Zfp414 | SID315481496 | 0.42 | 1.56 | 1.53 | enough cells to score |
| Il1rl2 | SID315476615 | -0.15 | 1.5 | 1.32 | enough cells to score |
| Mfsd6 | SID315476140 | -1.72 (active) | 1.21 | 1.3 | enough cells to score |

Only “nuclear/cytoplasmic p65 ratio, rep 2” (4 entries from above):
Or5b99 [SID315480352] = 1.2
Krt13 [SID315467684] = 1.12 (active)
Cfap100 [SID315479691] = 1.33
Adck2 [SID315471836] = 1.38
